In the experiment the target is Krüppel-like factor 4 (KLF4) (mouse (endogenous in RAW264.7)) (UniProt Q60793). Kind of experiment: co-IP; endogenous proteins in RAW264.7 lysates; extracts pre-cleared with Protein G beads, overnight with target antibodies on A/G-agarose beads at 4 °C, washed with lysis buffer, Western blot. Background: Immunoblotting shows a protein as a band on a membrane.

The chains behind the UniProt entries cited, without tags or fusion partners.
UniProt Q60793: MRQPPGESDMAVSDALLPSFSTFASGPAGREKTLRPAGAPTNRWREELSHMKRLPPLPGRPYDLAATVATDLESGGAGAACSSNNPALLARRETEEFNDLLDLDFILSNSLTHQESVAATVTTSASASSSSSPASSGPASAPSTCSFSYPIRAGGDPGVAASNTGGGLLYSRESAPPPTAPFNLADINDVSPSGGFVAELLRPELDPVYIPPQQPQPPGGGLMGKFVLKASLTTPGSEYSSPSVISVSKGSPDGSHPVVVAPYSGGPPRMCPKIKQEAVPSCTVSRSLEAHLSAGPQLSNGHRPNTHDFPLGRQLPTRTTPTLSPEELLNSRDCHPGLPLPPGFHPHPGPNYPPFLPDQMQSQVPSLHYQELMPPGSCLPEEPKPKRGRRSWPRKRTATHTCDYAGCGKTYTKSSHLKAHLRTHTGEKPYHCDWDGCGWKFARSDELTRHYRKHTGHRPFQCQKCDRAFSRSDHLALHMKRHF
UniProt P52479: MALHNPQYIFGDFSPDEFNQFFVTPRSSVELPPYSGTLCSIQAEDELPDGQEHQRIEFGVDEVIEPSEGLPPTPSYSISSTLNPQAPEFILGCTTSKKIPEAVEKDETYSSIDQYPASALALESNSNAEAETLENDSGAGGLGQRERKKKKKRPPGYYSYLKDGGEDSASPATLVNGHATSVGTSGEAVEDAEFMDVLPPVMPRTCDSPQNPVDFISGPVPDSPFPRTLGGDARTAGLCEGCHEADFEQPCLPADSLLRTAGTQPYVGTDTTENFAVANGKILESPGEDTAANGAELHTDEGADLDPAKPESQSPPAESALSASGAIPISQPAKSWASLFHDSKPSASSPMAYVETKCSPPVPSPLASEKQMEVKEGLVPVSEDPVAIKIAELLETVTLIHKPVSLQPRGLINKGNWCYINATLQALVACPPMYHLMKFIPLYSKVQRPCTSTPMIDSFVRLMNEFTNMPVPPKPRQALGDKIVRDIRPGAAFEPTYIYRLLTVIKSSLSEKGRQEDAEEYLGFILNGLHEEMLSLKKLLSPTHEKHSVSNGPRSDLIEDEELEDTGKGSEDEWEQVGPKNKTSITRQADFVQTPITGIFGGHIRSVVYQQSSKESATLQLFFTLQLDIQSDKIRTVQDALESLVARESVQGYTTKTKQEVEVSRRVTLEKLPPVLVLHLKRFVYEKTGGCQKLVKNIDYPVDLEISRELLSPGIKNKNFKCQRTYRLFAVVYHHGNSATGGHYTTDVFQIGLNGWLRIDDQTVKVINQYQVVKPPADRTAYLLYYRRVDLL

These are yes or no findings as the source states them, for the method shown. Binding seen in cells or lysates may run through a third protein. Some entries that bind do so weakly or less than the wild type.

This note sets out measurements from publication PMC12380376.

Regarding “ubiquitin-specific peptidase 10 (USP10) (from UniProt P52479 1-792) (enzyme)”, the binding result is “binds”.
